Experiment in all cases: co-purification
Test [1] deals with T1, (6xHis)Cdc3-GFP (S. cerevisiae) (UniProt P32457).
T1 sequence: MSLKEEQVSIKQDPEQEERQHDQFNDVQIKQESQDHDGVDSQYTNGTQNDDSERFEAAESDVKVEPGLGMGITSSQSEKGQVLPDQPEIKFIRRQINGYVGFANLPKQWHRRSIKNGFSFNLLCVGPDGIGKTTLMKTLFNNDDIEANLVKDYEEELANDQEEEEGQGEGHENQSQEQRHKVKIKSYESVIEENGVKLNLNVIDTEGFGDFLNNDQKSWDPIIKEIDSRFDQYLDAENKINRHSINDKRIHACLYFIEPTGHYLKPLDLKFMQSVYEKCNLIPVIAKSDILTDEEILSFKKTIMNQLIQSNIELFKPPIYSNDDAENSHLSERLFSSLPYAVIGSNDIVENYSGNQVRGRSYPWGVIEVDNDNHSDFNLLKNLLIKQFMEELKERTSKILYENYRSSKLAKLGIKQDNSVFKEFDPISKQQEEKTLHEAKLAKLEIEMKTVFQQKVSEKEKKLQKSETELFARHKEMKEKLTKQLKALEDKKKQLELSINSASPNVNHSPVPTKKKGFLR

The target in another test is Cdc10 (S. cerevisiae) (UniProt P25342).
Test [2] deals with T2, MBP-Cdc12 (S. cerevisiae) (UniProt P32468).
T2 sequence: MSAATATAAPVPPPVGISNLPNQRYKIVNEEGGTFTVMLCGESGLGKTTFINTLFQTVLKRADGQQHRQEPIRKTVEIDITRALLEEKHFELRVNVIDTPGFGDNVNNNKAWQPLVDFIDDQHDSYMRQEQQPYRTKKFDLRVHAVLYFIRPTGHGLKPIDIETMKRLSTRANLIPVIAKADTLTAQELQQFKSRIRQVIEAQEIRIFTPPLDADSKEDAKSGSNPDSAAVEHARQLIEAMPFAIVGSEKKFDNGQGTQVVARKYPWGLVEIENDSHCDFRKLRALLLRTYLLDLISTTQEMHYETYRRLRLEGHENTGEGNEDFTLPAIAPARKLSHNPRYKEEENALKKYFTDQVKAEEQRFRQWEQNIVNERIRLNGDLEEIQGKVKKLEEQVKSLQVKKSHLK

In test [3] the target is T3, ΔAH-Cdc12 (Cdc12 with the C-terminal residues 390-407 deleted) (S. cerevisiae) (UniProt P32468).
T3 sequence: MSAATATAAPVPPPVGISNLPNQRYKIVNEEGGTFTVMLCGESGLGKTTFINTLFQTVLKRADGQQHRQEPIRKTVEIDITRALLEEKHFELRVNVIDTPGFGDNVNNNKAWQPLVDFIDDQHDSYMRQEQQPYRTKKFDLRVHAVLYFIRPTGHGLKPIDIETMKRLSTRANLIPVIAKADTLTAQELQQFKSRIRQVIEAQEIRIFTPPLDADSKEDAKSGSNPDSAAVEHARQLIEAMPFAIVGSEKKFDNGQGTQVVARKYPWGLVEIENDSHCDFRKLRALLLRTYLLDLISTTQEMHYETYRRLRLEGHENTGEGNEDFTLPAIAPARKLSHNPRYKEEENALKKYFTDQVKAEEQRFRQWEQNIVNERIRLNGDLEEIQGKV

In test [4] the target is T4, ΔCTE-Cdc12 (Cdc12 with the C-terminal extension, residues 339-407, deleted) (S. cerevisiae) (UniProt P32468).
T4 sequence: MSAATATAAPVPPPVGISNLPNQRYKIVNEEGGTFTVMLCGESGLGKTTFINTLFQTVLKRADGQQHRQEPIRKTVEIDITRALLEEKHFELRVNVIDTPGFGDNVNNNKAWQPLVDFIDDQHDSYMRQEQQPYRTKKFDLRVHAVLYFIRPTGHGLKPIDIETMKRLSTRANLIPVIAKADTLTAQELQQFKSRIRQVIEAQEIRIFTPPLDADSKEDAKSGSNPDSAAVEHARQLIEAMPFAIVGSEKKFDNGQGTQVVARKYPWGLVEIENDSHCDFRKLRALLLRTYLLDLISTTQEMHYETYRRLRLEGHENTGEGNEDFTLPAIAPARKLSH

Results are given in words; binding and its absence hold for the method and conditions named. Some results given as binding are weak or reduced against the parent protein; the word gives no strength. For some assays here: Where a sequence is shown, tags or fusion partners need not be part of it.

B1: Cdc10 (protein, UniProt P25342 1-322)
chain: MDPLSSVQPASYVGFDTITNQIEHRLLKKGFQFNIMVVGQSGLGKSTLINTLFASHLIDSATGDDISALPVTKTTEMKISTHTLVEDRVRLNINVIDTPGFGDFIDNSKAWEPIVKYIKEQHSQYLRKELTAQRERFITDTRVHAILYFLQPNGKELSRLDVEALKRLTEIANVIPVIGKSDTLTLDERTEFRELIQNEFEKYNFKIYPYDSEELTDEELELNRSVRSIIPFAVVGSENEIEINGETFRGRKTRWSAINVEDINQCDFVYLREFLIRTHLQDLIETTSYIHYEGFRARQLIALKENANSRSSAHMSSNAIQR
B1: the binding result (in test [1]; with Cdc10 (S. cerevisiae)) was “binds” in each case.

B2: (6xHis)Cdc3-GFP (protein, UniProt P32457 1-520)
chain: MSLKEEQVSIKQDPEQEERQHDQFNDVQIKQESQDHDGVDSQYTNGTQNDDSERFEAAESDVKVEPGLGMGITSSQSEKGQVLPDQPEIKFIRRQINGYVGFANLPKQWHRRSIKNGFSFNLLCVGPDGIGKTTLMKTLFNNDDIEANLVKDYEEELANDQEEEEGQGEGHENQSQEQRHKVKIKSYESVIEENGVKLNLNVIDTEGFGDFLNNDQKSWDPIIKEIDSRFDQYLDAENKINRHSINDKRIHACLYFIEPTGHYLKPLDLKFMQSVYEKCNLIPVIAKSDILTDEEILSFKKTIMNQLIQSNIELFKPPIYSNDDAENSHLSERLFSSLPYAVIGSNDIVENYSGNQVRGRSYPWGVIEVDNDNHSDFNLLKNLLIKQFMEELKERTSKILYENYRSSKLAKLGIKQDNSVFKEFDPISKQQEEKTLHEAKLAKLEIEMKTVFQQKVSEKEKKLQKSETELFARHKEMKEKLTKQLKALEDKKKQLELSINSASPNVNHSPVPTKKKGFLR
As for B2, the binding entry in test [2], in test [3] and in test [4] was “binds” throughout.

Source of the values: publication doi:10.1101/2024.03.19.585775.
